Hit rate of the full screen: of about 52,000 sequences, about 210 (0.4%) were called active.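 Rule for the calls: active = gene whose silencing raises cell survival under the drug, median off-target-corrected z-score across its silencing RNAs 2 or more; inactive = the rest.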 The list shows a part of the results.

The nature of this test: Resistance to Poly (ADP-Ribose) Polymerase inhibitor: Gene Identification via Genome-wide siRNA Screen. The following applies: mouse BRCA2 R2336H ES cells, olaparib, CellTiter-Glo viability; hits give high values. In a few lines: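 Genome-wide siRNA screen (3 siRNAs/gene, 20 nM) in mouse ES cells carrying hypomorphic BRCA2 R2336H; olaparib 500 nM added 48 h post-transfection, CellTiter-Glo viability 72 h later. Normalized to plate-median negative control; MAD z-scores, gene median, seed-adjusted.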
In general terms: Cellular ATP, detected with luciferase, serves as a proxy for viable cell number.
As to “GGUUAAGGAAAUAUUGUGATT against 1200011I18Rik”, the z-score is inactive: 0.0353.
As for GCUGAGGGUUGAUUAGUGGTT against H2-Bl, the z-score was inactive: -1.2.
For GGAUAGAAUGGACUUUGAATT against Ulk2 the value was inactive: -0.163; for “GGAGAAUAAGCAAAUCCUUTT against 4930452B06Rik”, inactive: 0.895; for GCCCAAUGUCUCAGAUUAUTT against Dgkg, inactive: -0.212.
For “GGAAUCAGUCGCAUCACUUTT against E130012K09” the value was inactive: -1.57; for “CCUUUCACUAGCUAAGUGATT against 4632423N09Rik”, inactive: 0.558.
For GGAGAUUUAUUAAACUGGATT against Ell2, the z-score is inactive: -0.896.
GGAAGUCGAGGUAUACACUTT against Pax2: the z-score was inactive: 0.798.
To GUGGCCAAAACAACAUGCATT against Olfr1348 belongs inactive: 0.822; to GGACAUUGACCUGUUCGGCTT against Eef1d, inactive: -1.11; to CCAUUACUCGCAUCUGGGATT against Tcfap2c, inactive: 2.28.
For GCCGAAUAUUAAAUGGUUUTT against BC003262 the value was inactive: 1.77; for GGAUGUCAGAUUUGUCAGCTT against Trpm7, inactive: -0.312; for GGACAACUCGAUUUUAUCCTT against Nudt15, inactive: 0.0702.
For the sequence “GCCUGAUAGUGGUGGACAGTT against 2310005G13Rik”, the z-score is inactive: 2.52.
For CCGGAUCAUCCUGGAGAUUTT against Krt1-13 the value was inactive: 0.237; for GGGAGACUCCUUUUGCACUTT against Wnt1, inactive: 0.264.
To GGAGGCUUCAUUCUGCUUUTT against D6Ertd32e belongs inactive: 0.658.
To “GGAGAAAUAAGUGCAGGUGTT against 4930539I12Rik” belongs inactive: -1.19; to GCAACCUAUGUCUGCAACUTT against Ecg2, inactive: -1.45.
For the sequence GCAAAUUUUAUAUGCGACUTT against Glipr1, the z-score was inactive: 0.746.
For “GCUGGAUUCUCAAAGGGAATT against A530016O06Rik” the value was inactive: -0.14; for GGACAUGGAUUUGAUAGACTT against Acaa2, inactive: -1.36.
To GCGAAGAUCACCAUGUCUCTT against Oosp1 belongs inactive: 0.688; to GGUUUCUUCGAAUUACUGUTT against Ugt1a10, inactive: -0.00854.
For GCUAAGCGAAGAGUUUAACTT against Dlgap3 the value was inactive: -0.0125; for GGCUGUGAAUUGUUAACUATT against Stard4, inactive: -1.41.
Consider GGUGGAAGAGAAACUCAGGTT against Mill2, for which the z-score is inactive: 0.788.
For GGCAUUUGACACAACUGUCTT against AI182371 the value was inactive: -0.124.
For GCCACUCUUUAAGAAUCUATT against Abcf1 the value was inactive: -0.475.
For GGAAGUUGACUUGUUCUCUTT against Ccndbp1 the value was inactive: -0.348; for GCAAGGAAGGCUUUCAAGATT against Gsta1, inactive: 1.41; for GAUGACUAGCUCUACUUUATT against Olfr738, inactive: 0.559.
Consider GGUUGUCUACUUCACCGCUTT against Slc6a6, for which the z-score was inactive: 1.63.
CCUAAAGGUUCCCAACAGUTT against Serpinb3d: the z-score was inactive: -0.0276.
Regarding GGAGAACCUGCUGAAGGACTT against Itgb3, the z-score is inactive: -0.362.
To “GCAGUCUUUCUAAACAUAUTT against E130319B15Rik” belongs inactive: 0.535; to “GGAGAAAAUGCAGUGUGAGTT against 1190005P17Rik”, inactive: -1.84; to GGACCGUAUCCCAAAAGAUTT against Klf1, inactive: -1.41.
For GGAUUAUCCUCUUUGACACTT against Kremen the value was inactive: 0.539; for GGUAUUCAGAAAUAUCAAGTT against Pgcp, inactive: -0.966; for CGUUUGAUGAGACCAUGUATT against Vwf, inactive: -0.238.
For GUCAUGGUAGGGAUUUACATT against Gm226 the value was inactive: -0.576; for GGCAAAUAAGAGAUAUCCATT against Vps24, inactive: 1.91.
Turning to CCUUCAACAGAUCUAGAGUTT against Tceb3bp1, the z-score was inactive: 1.47.
To CGAAGGGCUUUAGCUUGGATT against Capn11 belongs inactive: -1.39; to GGUAUACUCUUAGAGUAACTT against Kelchl, inactive: -0.692.
For GGUCUCAGAAGUGGUUUUCTT against Mettl4 the value was inactive: 2.06; for GGCUUCAUGCUACACAGAUTT against Soat2, inactive: -0.222.
For GCAUCCUAAAGGAGACGCATT against BC027663 the value was inactive: 0.784.
Turning to CGUAAGAUGAAAGCUAUUGTT against Mtx2, the z-score was inactive: -0.0996.
As for GCAGGCUCUGCAUGAAGCATT against Akp2, the z-score is inactive: -0.913.
To GGUGGCAGUGAAAGUCAUUTT against Snrk belongs inactive: -0.723; to CCUUGGUCACCGAAUUUAUTT against Olfr152, inactive: 0.752; to “GAAAUAUUACAGCGACUGUTT against 2610017I09Rik”, inactive: 0.671.
To GCGUUUGGGCCGGAAGAAATT against Smo belongs inactive: 0.111; to GGCCAAAUUAGAAAAAGUCTT against Polr3e, inactive: -2.57; to GGGUCAUGUACAAUCUCUUTT against Bbc3, inactive: 0.819.
For GGUGCUGUGGUUAAAAUGATT against Pgm5 the value was inactive: 0.315; for GGAGACAUGGCAUCCAAAUTT against Cnr1, inactive: 0.734.
With CCGCAUGAAGAGCAACCACTT against Hgs, the z-score was inactive: 0.793.
For CCACCUUUAUUCAAAAUCGTT against Mmp20 the value was inactive: 0.883; for GCGAGUUGUUUCCAUAGUUTT against Gpr22, inactive: 0.273.
Consider GGAUGUGAUAUUAUAAAGGTT against Apba1, for which the z-score is inactive: -0.421.
To GGUCAUGCUCAUCUUCUAUTT against Pigq belongs inactive: 0.839; to “GGGAAUCUUUGUAAACAGATT against 1810013B01Rik”, inactive: 0.197.
For GGAGGACUCCAAGACCUUCTT against Rcn1 the value was inactive: -0.355.
For GGCCUACAUGAACCAGAGATT against Bloc1s1 the value was inactive: -1.78; for CGAGAACUUAAAAUGGGAATT against Cd3e, inactive: 0.544.
Turning to GCAAAGCCCUAUUCCUAAUTT against V2r4, the z-score is inactive: -0.0485.
Take GGUCAGAGUCAUCAACUUATT against Asb8: the z-score was inactive: 1.05.
Regarding GCCCUUUCAUCAAUAAUGUTT against Slc12a7, the z-score was inactive: 0.622.
On to GGCCCUUUAACACAUACCCTT against Pak4, for which the z-score is inactive: -0.49.
To GGAUGAAGCAGAAGAAUAATT against Spg7 belongs inactive: -1.73; to GGGCAACAUGUUAUUCUACTT against Psg29, inactive: 0.459.
For GGAGUGACUAACCCUCUAGTT against Ccnk the value was inactive: -2.69; for GAAUGCGGCUGUAUGAGAATT against Crygc, inactive: -2.04.
For GGGCGACACAAGGUUUUUGTT against Kif3a the value was active: 1.13; for CGAGAAUGUGUCUUCUUUATT against Trpm8, inactive: 0.171; for UCAGAACCAUUUCUGUGCGTT against Pou4f1, inactive: -0.303.
Consider CGAGUGUGAUACGUACUUCTT against Jag1, for which the z-score was inactive: -0.597.
GCCCAUUAUAGGAAAGAACTT against Rhox12: the z-score is inactive: -0.4.
To CCUUUGAGACAACCAGUCCTT against Entpd2 belongs inactive: -0.697.
To GGUCUCCCUUUUCAAUCGCTT against Rbpsuhl belongs inactive: 0.306; to “GCACUGAACUUUGUCGAUUTT against 2900009I07Rik”, inactive: -0.545.
For UAGCACCAUUUUUCAGAACTT against Ascc1 the value was inactive: 5; for GGAGAUAGAAUUGAAAUUCTT against Dtprp, inactive: -0.903; for GGUUUGCUACACUUCAGAATT against Xpr1, inactive: 0.787.
With GGAAUAUGCUGCAAAAAUCTT against Camk2g, the z-score is inactive: -0.675.
To “GCUCUGCAUGACCUUACCUTT against 1300012D20Rik” belongs inactive: -0.193; to “GGAUCAACUUACUUGUGGCTT against 8430437G11Rik”, inactive: -0.28; to CCUCCACUGCUUUUGUCUATT against Olfr1436, inactive: -0.777.
For GGAGUGUUGGAUGCUACCATT against Ache the value was inactive: 2.2.
To GGAUGGUUAUGUGUGGAGUTT against Socs4 belongs inactive: -0.3.
On to GCACACCUAUGUCCACUCUTT against Aars, for which the z-score is inactive: -0.69.
On to CCAUGGAGUCUGGUUUCCUTT against Olfr591, for which the z-score is inactive: 1.79.
To GGACCAAGGCUUGGAUCUUTT against Magea6 belongs inactive: -2.08.
For CCCUAUCUCAAGGAAUAAATT against Pcyox1, the z-score was inactive: -1.57.
To GGAGACUUCUUUUUUGACATT against Myo7b belongs inactive: -0.104.
To “CCCAGUAUCCCAUAACCCATT against 1700022I11Rik” belongs inactive: -1.67.
To GGAAAUUUGUAUCCCGAGUTT against Trp53 belongs inactive: 4.7; to “GGAAAGAGGGUUUAUUUUGTT against 4930556L07Rik”, inactive: 1.24.
GGAUAUUCCUGCUGUCACCTT against Dmrt1: the z-score is inactive: -0.3.
To GGUUGUGUCUUCUUUUCUCTT against Cenph belongs inactive: 0.34.

Source of the values: PubChem BioAssay AID1347423 (Functional Genomics Laboratory (NCATS/FGL), 2020).
